Reference: patent US11572557B2, “Photoreversible acylation reagents” (The Board of Trustees of the Leland Stanford Junior …, priority 2018, dated 2023)

System: 12 nucleotide (nt) RNA strand
Assay: Cloaking of 12 nt RNA with PCA 1 and uncloaking with 365 nm light, analysed by denaturing PAGE and MALDI-TOF
Experimental: To test if prototypical PCA reagent 1 is effective in reacting with RNA, it was incubated for 4 h at 100 mM at room temperature with a 12 nucleotide (nt) RNA strand (10 μM) in water. One μL RNA stock solution in water (1 mM or 100 μM) was dissolved in 8 μL RNAse free biological grade water and heated to 95° C. for 2 min and then cooled to room temperature. To this was added 1 μL 1M PCA stock in dry DMSO and the mixture incubated for 4 h at room temperature unless stated otherwise. The solution becomes slightly cloudy initially and then clears after ˜30 min. After reaction, the RNA was precipitated by adding 1 μL of 3 M NaOAc buffer pH=5.2, 1 μL glycogen (10 mg/mL) and 36 μL EtOH and storing at −80° C. for 16 h. The resulting suspension was centrifuged at 14,800 rpm for 60 min and the supernatant was removed. The solids were washed with 10 μL 70% EtOH and centrifuged at 14,800 rpm for 5 min. The supernatant was removed and the RNA was dried in air for 10 min and redissolved in RNAse free biological grade water at the desired concentration. RNA concentration was determined with a Nanodrop One microvolume UV-VIS spectrophotometer. RNA samples were stored at −20° C.
Uncloaking of RNA by photoremoval of the PCA labels was also investigated. […]
In addition, native, cloaked and uncloaked Cy-5 labeled 12-mer RNA (Seq. ID No. 1) were evaluated using 30% denaturing PAGE and MALDI-TOF. […]

Question: Which results are given for `COc1cc(COC(=O)n2ccnc2Cl)c([N+](=O)[O-])cc1OCCN(C)C` [PCA 1, 4-(2-(dimethylamino)ethoxy)-5-methoxy-2-nitrobenzyl 2-chloro-1H-imidazole-1-carboxylate]?
Answer: new mobility-shifted bands of cloaked RNA (denaturing PAGE) (100 mM PCA 1, 4 h, room temperature, 10 μM 12 nt RNA in water): up to five new mobility-shifted bands; shifted bands after uncloaking (PAGE) (cloaked 12-mer RNA after 365 nm light): majority of shifted bands disappeared
